The text below walks through data of patent publication US20110195494A1 (Boehringer Ingelheim, published 2011).

The chains are these.
B1: DLLBII101G08 (VHH)
VHH: EVQLVESGGGLVQAGGSLRLSCAASGRTFSSYAMAWFRQAPGKEREFVAAIRWSGGTAYYADSVQGRFTISRDNAKNTVYLQMNSLKPEDTAVYYCANRAADTRLGPYEYDYWGQGTQVTVSS
notes: also called DLLBII101G8; 101G8; not shown: C-terminal c-myc tag and His6 tag
B2: DLLBII115A05 (VHH)
VHH: EVQLVESGGGLVQPGGSLRLSCAASGFTFGSYDMSWVRRSPGKGPEWVSSINSGGGSTYYADFVKGRFTISRDNAKNTLYLQMNSLKPEDTAVYYCAADRYIRARQGDYWGAYEYDYWGQGTQVTVSS
notes: also called DLLBII115A5; 115A5; not shown: C-terminal c-myc tag and His6 tag
B3: DLLBII56A09 (VHH, not shown: small tags and cut ends)
VHH: EVQLVESGGGLVQPGGSLRLSCAASGFTFDDYAIGWFRQAPGKEPEGISCISSSGGITYYADSVKGRFTTSRDNAKNTVYLQMNSLKPEDTAVYYCATPGIAACRGIHYTGQGTQVTVSS

Results are given in words; binding and its absence hold for the method and conditions named.

The target of one assay is human DLL4 deletion mutant hDLL4.1 (human). Description: Biacore, VHH on chip, deletion mutant injected. On the technique in general: Surface plasmon resonance follows binding to a sensor surface in real time, without labels.
B1: the binding result is given as “no binding (tested: 200 nM)”.
Same read-out and setting: the value for B2 was “no binding (tested: 200 nM)”; that for B3 was “no binding (tested: 200 nM)”.

The next assay deals with mouse DLL4 deletion mutant mDLL4.8 (mouse). As to the kind of experiment: Biacore, VHH on chip, deletion mutant injected.
Take B1: the binding result is recorded as “no binding (tested: 200 nM)”.
Consider B2, for which the binding entry was “no binding (tested: 200 nM)”.
As for B3, the binding result is “no binding (tested: 200 nM)”.
